At least one structure is not confirmed: it was looked up by name or label, or the drawing left a doubt.
Test system: GYP.Mur knock-in mice and control mice
Assay: Evaluation of anti-hypertensive medications: blood pressure after oral gavage
Format: in vivo, mouse (C57BL/6J)
Settings: GYP.Mur knock-in versus control mice, data not shown
Method: Mouse BP was measured using an 8-channel non-invasive blood pressure system, a conventional instrument for murine BP measurements with about 99% correlation to the invasive telemetry approach. The BP system is a traditional, tail-cuff method, with a volume-pressure recording (VPR) sensor-cuff (similar to a stethoscope) and an occlusion cuff (similar to the arm cuff for conventional human BP measurement). The instrument settings in this study were 5 acclimation cycles, 15 cycles per set, 250 mmHg as the maximal occlusion pressure, and 20 seconds for deflation. Before the measurement, the experimenter gently placed a mouse in a holder or at the entry point of the holder, from which the mouse could voluntarily walked into the holder. An occlusion cuff and a VPR cuff were then fitted onto the mouse tail. […] The body weight (BW) of each mouse was measured for preparation of individual anti-hypertensive doses (in mg drug per Kg BW). […] The dose and maximal efficacy of an anti-hypertensive drug was determined based on the degrees of BP drop within an hour of anti-hypertensive administration. […] On the morning of the test day, the blood pressure of GYP.Mur knock-in mice and age-matched control mice (wild-type mice) was first measured. […] The BP and heart rates (HR) of the mice were measured at the 1st, 3rd, 5th, and the 24th hour post-medication. […]

Compound: CCOC(=O)C1=C(COCCN)NC(C)=C(C(=O)OC)C1c1ccccc1Cl (stereo not shown) [amlodipine]
- efficacy in lowering BP in GYP.Mur knock-in mice compared with control mice: significantly more effective

Reference: patent US12685297B2, “Genetically modified mouse, methods for producing the same, and uses thereof” (MacKay Memorial Hospital, priority 2023, dated 2026)
